Taken from: PubChem BioAssay AID1259405 (NCATS, 2018)
Aim: 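Knock-downs that lift recombinant protein yield in hamster ovary cells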 (primary screen). System: Chinese hamster CHO-K1 ovary cells with stable secreted eGFP expression. Reagents: single siRNA against mouse genes, 0.8 pmol siRNA per well (2 µl of 400 nM stock). Timing: 3 days. Measurement: 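Per-well intracellular GFP measured by laser scanning cytometry, plus viability from ATP luminescence, each relative to plate median of non-targeting control wells, in %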. Direction: GFP, % of control: higher = more GFP per well, higher productivity; viability (ATP), % of control: higher = more viable cells (more ATP). Hit rule: 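a knock-down is called active if GFP reaches 120% or more of non-targeting control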.
The deposit covers about 50,000 reagents; below is a part drawn at random. About 4,000 of all reagents (8%) were called active. 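Mouse siRNA library applied to hamster cells; one well for each siRNA.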 Reagents against one gene are numbered here. No sequences are given here.

Or10am5 #1: GFP, % of control = 62.3; viability (ATP), % of control = 34.6; outcome = inactive
Or10am5 #2: GFP, % of control = 56.6; viability (ATP), % of control = 74.4; outcome = inactive
Or10am5 #3: GFP, % of control = 91.4; viability (ATP), % of control = 64.3; outcome = inactive
Slc9b2 #1: GFP, % of control = 59.1; viability (ATP), % of control = 65; outcome = inactive
Slc9b2 #2: GFP, % of control = 64.6; viability (ATP), % of control = 72.8; outcome = inactive
Slc9b2 #3: GFP, % of control = 102; viability (ATP), % of control = 92.5; outcome = inactive
Lss #1: GFP, % of control = 69.4; viability (ATP), % of control = 122; outcome = inactive
Lss #2: GFP, % of control = 97.9; viability (ATP), % of control = 104; outcome = inactive
Or5p59 #1: GFP, % of control = 36.4; viability (ATP), % of control = 30.4; outcome = inactive
Or5p59 #2: GFP, % of control = 96.9; viability (ATP), % of control = 26.5; outcome = inactive
Or5p59 #3: GFP, % of control = 98.3; viability (ATP), % of control = 86.3; outcome = inactive
Or14j9 #1: GFP, % of control = 50.2; viability (ATP), % of control = 74.1; outcome = inactive
Or14j9 #2: GFP, % of control = 105; viability (ATP), % of control = 58.6; outcome = inactive
Or14j9 #3: GFP, % of control = 88.3; viability (ATP), % of control = 86; outcome = inactive
Mrpl43 #1: GFP, % of control = 118; viability (ATP), % of control = 94.2; outcome = inactive
Mrpl43 #2: GFP, % of control = 68.2; viability (ATP), % of control = 94.4; outcome = inactive
Mrpl43 #3: GFP, % of control = 101; viability (ATP), % of control = 90.5; outcome = inactive

2 entries from above, arranged by “GFP, % of control”, highest first:
Mrpl43 #1: GFP, % of control = 118; viability (ATP), % of control = 94.2; outcome = inactive
Mrpl43 #2: GFP, % of control = 68.2; viability (ATP), % of control = 94.4; outcome = inactive
